From US20160090571A1, “CULTURE MEDIA AND METHODS FOR CULTURING MICROORGANISMS” (Orior, LLC, priority 2014, published 2016)
For at least one compound, name, drawing or mass did not settle the structure.

Tested on: microorganism associated with Morgellons disease
Test: Drug sensitivity / growth inhibition testing of the cultured microorganism
Assay type: cell-based
Settings: antifungal agent added to the culture medium followed by the organism
Text: In other studies, Itraconazole and Posaconazole were each added to the culture medium followed by the organism.

CCC(C)n1ncn(-c2ccc(N3CCN(c4ccc(OCC5COC(Cn6cncn6)(c6ccc(Cl)cc6Cl)O5)cc4)CC3)cc2)c1=O (stereo not shown) [Itraconazole]
inhibition of growth: Neither antifungal agent was shown to inhibit growth
